Our source for the IC50 values is patent US11666589B2, “Pivarubicin and benzarubicin compositions” (Paradox Pharmaceuticals, Inc., priority 2020, dated 2023).

What is called IC50 is the concentration needed to halve the response being measured. Higher therefore signals a need for much substance.

This assay relates to MDA-MB-231 cells. As to the kind of experiment: MTT cytotoxicity, TNBC monolayer MDA-MB-231. The format is cell-based. Particulars: Homo sapiens, MDA-MB-231, 48 h. On the procedure: Rottlerin treatment of cells, cell viability analysis by MTT [28] and immunoblot identification of protein expression were performed and described previously.
Based upon the ability of pivarubicin to circumvent multiple mechanisms of resistance against doxorubicin, we then examined the efficacy of pivarubicin against TNBC in comparison to doxorubicin, using the following procedure, using two basal TNBC cell lines. MDA-MB-231 cells and SUM-159 cells were maintained under adherent monolayer growth conditions. Upon reaching 50% confluency, cells were treated for 48 h with the dose range of doxorubicin or pivarubicin as indicated in FIGS. 6A and 6B.
In the absence of specific receptor targets, the current treatment of metastatic TNBC relies on doxorubicin-based multidrug therapy, with only limited effectiveness. […] Once achieving a primary tumor volume of 150-190 mm^3, mice were randomized into three cohorts for treatment with the MTD of pivarubicin or doxorubicin, or the equivalent volume per body weight of vehicle.

In turn, `COc1cccc2c1C(=O)c1c(O)c3c(c(O)c1C2=O)C[C@@](O)(C(=O)CO)C[C@@H]3O[C@H]1C[C@H](N)[C@H](O)[C@H](C)O1` [Doxorubicin, reference compound] displayed a 50% inhibitory concentration (IC50) of 1000 nM.
